At least one structure is not confirmed: it was looked up by name or label, or the drawing left a doubt.
System: ApCREB-2 mRNA
Test: Steady state level of ApCREB-2 mRNA after exposure to agents
Parameters: species or system Aplysia
Details: following exposure to the agent
Protocol: RNA was isolated from cultures of approximately 200 Aplysia sensory neurons that had been exposed to none, one, or five pulses of 5-HT (10 μM) as indicated. As a control, one half of the RNA was processed omitting reverse transcriptase from the reaction (—RT).
(FIG. 3B) Northern blot analysis of RNA isolated from CNS of Aplysia exposed to 5-HT in vivo. CNSs were dissected from anesthetized animals after exposing them in vivo to 5-HT (50 μM) for the time indicated above each lane. Eight μg of total RNA from each timepoint was separated in a 1% agarose gel, blotted and consecutively hybridized with probes specific for ApCREB-2, ApCREB-1, ApC/EBP, and ribosomal protein S4 transcripts.
Cultures of approximately 200 Aplysia sensory neurons, established by the dissociation of the pleural sensory cluster in a single dish, were exposed to 10 μM 5-HT for 5 min once or five times separated by 20 min. After washing with ASW, cells were lysed by 100 μl of the guanidium thiocyanate solution and the RNA was isolated. For RT-PCR, the isolated RNA was treated with RNAse free DNAse (Boehringer), reextracted as above and processed using RT-PCR kit (Boehringer). The sequence of the primers used were […]

C=C[C@@]1(C)CC(=O)[C@]2(O)[C@@]3(C)[C@@H](O)CCC(C)(C)[C@@H]3[C@H](O)[C@H](OC(C)=O)[C@@]2(C)O1 [forskolin]
level of ApCREB-2 mRNA: does not change
